Measured values published in ChEMBL document CHEMBL1921774, “Evaluation of 18F-labeled benzodioxine piperazine-based dopamine D4 receptor ligands: lipophilicity as a determinate of nonspecific binding” (J Med Chem, 2011).

How the values were obtained:
Homo sapiens [1] = species: Homo sapiens; experiment: Selectivity ratio of Ki for human dopamine D2short receptor to Ki for human dopamine D4.4 receptor
[2] = Octanol-buffer partition coefficient, log P of the compound at pH 7.4 by shake flask method; details: octanol/water
Homo sapiens [3] = species: Homo sapiens; experiment: Selectivity ratio of Ki for human dopamine D3 receptor to Ki for human dopamine D4.4 receptor
Homo sapiens [4] = species: Homo sapiens; experiment: Selectivity ratio of Ki for human dopamine D2long receptor to Ki for human dopamine D4.4 receptor
[5] = Lipophilicity, log P of the compound at pH 7.4 by HPLC method; details: buffer

## Fc1ccc(CN2CCN(c3ccc4c(c3)OCCO4)CC2)cn1
Homo sapiens [1]
  Ratio Ki: 3000
[2]
  logD: 1.81
Homo sapiens [3]
  Ratio Ki: 1100
Homo sapiens [4]
  Ratio Ki: 2000
[5]
  logP: 2.02
